Test results published in patent publication US20220186223, “T-LYMPHOCYTE BINDING APTAMERS” (Aummune Ltd., published 2022).
For part of these data: At least one result comes from cells or an extract, where the contact may be indirect. For part of these data: For at least one entry, the source does not settle the construct or the ends of the probe. For part of these data: Negatives hold for the conditions tested.

Sequences of proteins named here, by UniProt entry; tags and fusion partners are left off. A change or cut given only in a name is not applied to a line headed by its entry.
UniProt P07766: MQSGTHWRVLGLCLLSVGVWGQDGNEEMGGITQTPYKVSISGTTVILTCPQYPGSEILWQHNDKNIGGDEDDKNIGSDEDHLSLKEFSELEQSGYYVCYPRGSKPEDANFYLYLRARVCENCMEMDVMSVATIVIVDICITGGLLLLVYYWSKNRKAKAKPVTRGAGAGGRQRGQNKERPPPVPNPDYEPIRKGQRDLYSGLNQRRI

Tests used:
[1] = biological target: CD3 epsilon (native CD3/TCR complex on Jurkat T cells) (Homo sapiens) (UniProt P07766); experiment: flow cytometry; conditions: synthesized with 5' CpG motif having 5 PS linkages (extension not in ref), Jurkat at 4 C and 37 C, protein on the cell surface, label: Cy5 via hybridised CpG'-Cy5 complementary strand, single-stranded DNA
[2] = test system: Human IgG1 isotype control (Homo sapiens); experiment: binding assay; conditions: HPLC size exclusion, negative control protein, binding to CD3e described as specific, purified recombinant protein, protein details: InVivoMAb BE0297, label: Cy5 via hybridised CpG'-Cy5 complementary strand, single-stranded DNA
[3] = biological target: CD3 epsilon (native CD3/TCR complex on primary Pan T cells) (Homo sapiens) (UniProt P07766); experiment: flow cytometry; conditions: PS at first 5 linkages of 5' CpG motif; primary Pan T cells at 37 C under blocking conditions; no binding to Pan B cells; protein on the cell surface; label: Cy5 via hybridised CpG'-Cy5 complementary strand; single-stranded DNA

## CTTTTAGGTCTGCTTAGGATTGCGAAAAAAG [CS8c (CS8cut)]
[1]; less specific than CS6 and CS7, variant of CS8
  binding result: binds
[2]; synthesized with 5' CpG motif having 5 PS linkages (extension not in ref), variant of CS8
  binding result: no binding

## TCGTCGTCGCGGTTCGCGTCCGTATCGTATAAGGGCTGCTTAGGATTGCGATAATACGGTCAA [CS6 (5PS-CpG-CS6)]
[3]
  binding result: binds
[2]; PS at first 5 linkages of 5' CpG motif
  binding result: no binding

## CATTTCATAGGGCTGCTTAGGATTGCGAAGGTAATGCCAG [CS7]
[1]; differential versus Kasumi-1 and Daudi controls, lower than CS6 at 37 C
  binding result: binds
[2]; synthesized with 5' CpG motif having 5 PS linkages (extension not in ref)
  binding result: no binding
